Our source for the binding values is article PMC10132971.

First the molecules themselves.
T1: Smc6-TAP (S. cerevisiae) (UniProt Q12749)
T1 sequence: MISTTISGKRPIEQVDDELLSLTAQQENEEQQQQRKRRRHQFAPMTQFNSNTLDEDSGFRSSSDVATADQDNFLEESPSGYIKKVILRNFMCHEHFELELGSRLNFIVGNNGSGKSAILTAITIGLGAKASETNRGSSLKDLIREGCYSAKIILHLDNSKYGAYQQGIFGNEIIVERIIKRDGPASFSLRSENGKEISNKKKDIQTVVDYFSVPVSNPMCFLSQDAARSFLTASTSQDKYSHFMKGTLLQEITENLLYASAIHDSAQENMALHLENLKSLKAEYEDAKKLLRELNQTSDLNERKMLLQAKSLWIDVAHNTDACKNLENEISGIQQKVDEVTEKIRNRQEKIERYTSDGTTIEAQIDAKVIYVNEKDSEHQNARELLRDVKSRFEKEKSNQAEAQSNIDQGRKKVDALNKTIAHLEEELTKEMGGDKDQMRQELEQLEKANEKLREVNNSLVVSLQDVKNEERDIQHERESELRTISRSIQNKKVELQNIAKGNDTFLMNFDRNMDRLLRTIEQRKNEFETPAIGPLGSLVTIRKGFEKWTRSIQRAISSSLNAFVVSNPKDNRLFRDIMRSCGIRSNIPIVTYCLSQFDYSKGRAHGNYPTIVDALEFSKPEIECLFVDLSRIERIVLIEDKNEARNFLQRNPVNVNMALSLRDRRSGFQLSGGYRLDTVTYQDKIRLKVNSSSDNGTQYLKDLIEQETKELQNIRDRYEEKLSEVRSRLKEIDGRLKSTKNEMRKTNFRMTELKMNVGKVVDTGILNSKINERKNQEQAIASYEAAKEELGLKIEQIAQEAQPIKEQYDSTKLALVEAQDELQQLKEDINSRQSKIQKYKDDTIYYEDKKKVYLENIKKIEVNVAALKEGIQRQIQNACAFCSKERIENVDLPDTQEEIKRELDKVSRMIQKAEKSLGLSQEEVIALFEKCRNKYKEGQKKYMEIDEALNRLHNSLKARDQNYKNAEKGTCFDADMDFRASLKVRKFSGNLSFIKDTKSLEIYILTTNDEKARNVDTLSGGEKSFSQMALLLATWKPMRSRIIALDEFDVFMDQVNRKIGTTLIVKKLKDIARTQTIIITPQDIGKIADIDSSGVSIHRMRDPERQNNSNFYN

B1: Nse2 (protein, UniProt P38632 1-267)
chain: MALNDNPIPKSVPLHPKSGKYFHNLHARDLSNIYQQCYKQIDETINQLVDSTSPSTIGIEEQVADITSTYKLLSTYESESNSFDEHIKDLKKNFKQSSDACPQIDLSTWDKYRTGELTAPKLSELYLNMPTPEPATMVNNTDTLKILKVLPYIWNDPTCVIPDLQNPADEDDLQIEGGKIELTCPITCKPYEAPLISRKCNHVFDRDGIQNYLQGYTTRDCPQAACSQVVSMRDFVRDPIMELRCKIAKMKESQEQDKRSSQAIDVL
B2: Nse3 (protein, UniProt Q05541 1-303)
chain: MSSIDNDSDVDLTEDLAVAKIVKENPVARKMVRYILSRGESQNSIITRNKLQSVIHEAAREENIAKPSFSKMFMDINAILYNVYGFELQGLPSKNNMNAGGNGSNSNTNKSMPEPLGHRAQKFILLNNVPHSKNFDDFKILQSAHTYEELIVTGEYIGDDIASGTSNTLESKLSTDRDLVYKGVLSVILCIVFFSKNNILHQELIKFLETFGIPSDGSKIAILNITIEDLIKSLEKREYIVRLEEKSDTDGEVISYRIGRRTQAELGLESLEKLVQEIMGLEKEQTKSLHDDIIKSIGDSYSI
B3: Nse4 (protein, UniProt P43124 1-402)
chain: MSSTVISRKRRNSTVTEPDSSGETRKQKKSRSDEKSSSSKDGDPQLEFKVLQGYRDLESEMHKGRAQVTRTGDIGVAMDNLNAVDSLFNKVIGIKNNGLFAHDARAMVSISELAQISVRNLKFDDSRSMVNLENIVNSLKRYMLKEHFKLNNIAENRNDLTLAADEQSAADQQEESDGDIDRTPDDNHTDKATSSFKATSMRHSYLQQFSHYNEFSQFNWFRIGALYNTISKNAPITDHLMGPLSIEKKPRVLTQRRRNNDQVGEKITAEKITQHSLNSTQQETTPEQVKKCFKKLSKKLGPEGSINLFKFIIDPNSFSRSIENLFYTSFLIKEGKLLMEHDEEGLPTIKIKQSISHTDSRSKEIERQRRRAAHQNHIIFQMDMPTWRKLIKKYNITSPFLD
B4: Nse5 (protein, UniProt Q03718 1-556)
chain: MDGALINSVLYVSPRNGAHYFVELTEKHLLAFEMLNSMCLLENYDHVLLFLECQFGKSHNLAVIPFDIILVLFTLSTLSEYYKEPILRANDPYNTSRETLSRRALKLLQKYLAILKEFDSEQYNLYDLELLRCQFFLAIDTLTPKKQKWGFDRFRRTKSESGVTYRQNASVDPELDQAKTFKNPYRSYISCLEQRNTILGNRLLNLKLNEPGEFINMILWTLSNSLQESTPLFLSSHEIWMPLLEILIDLFSCRQDYFIQHEVAQNVSKSLFVQRLSESPLAVFFESLNTRNFANRFSEYVFLNCDYKLPSDNYATPVHPVYNGENTIVDTYIPTIKCSPLYKSQKSLALRRKLIGSCFKLLLRVPDGHRLITPRIVADDVIQGISRTLASFNDILQFKKFFMTENLSQESYFIPLLAEGTLSEILKDTQECVVILTLVENLSDGVSFCNEVIGLVKSKCFAFTEQCSQASYEEAVLNIEKCDVCLLVLLRYLLHLIGTEAILDAKEQLEMLHAIEKNDSGRRQWAKALNLGNDPPLLYPIVSQMFGVHDKSVIIE
B5: Smc5 (protein, UniProt Q08204 1-1093)
chain: MTSLIDLGRYVERTHHGEDTEPRSKRVKIAKPDLSSFQPGSIIKIRLQDFVTYTLTEFNLSPSLNMIIGPNGSGKSTFVCAVCLGLAGKPEYIGRSKKVEDFIKNGQDVSKIEITLKNSPNVTDIEYIDARDETIKITRIITRSKRRSDYLINDYQVSESVVKTLVAQLNIQLDNLCQFLSQERVEEFARLKSVKLLVETIRSIDASLLDVLDELRELQGNEQSLQKDLDFKKAKIVHLRQESDKLRKSVESLRDFQNKKGEIELHSQLLPYVKVKDHKEKLNIYKEEYERAKANLRAILKDKKPFANTKKTLENQVEELTEKCSLKTDEFLKAKEKINEIFEKLNTIRDEVIKKKNQNEYYRGRTKKLQATIISTKEDFLRSQEILAQTHLPEKSVFEDIDIKRKEIINKEGEIRDLISEIDAKANAINHEMRSIQRQAESKTKSLTTTDKIGILNQDQDLKEVRDAVLMVREHPEMKDKILEPPIMTVSAINAQFAAYLAQCVDYNTSKALTVVDSDSYKLFANPILDKFKVNLRELSSADTTPPVPAETVRDLGFEGYLSDFITGDKRVMKMLCQTSKIHTIPVSRRELTPAQIKKLITPRPNGKILFKRIIHGNRLVDIKQSAYGSKQVFPTDVSIKQTNFYQGSIMSNEQKIRIENEIINLKNEYNDRKSTLDALSNQKSGYRHELSELASKNDDINREAHQLNEIRKKYTMRKSTIETLREKLDQLKREARKDVSQKIKDIDDQIQQLLLKQRHLLSKMASSMKSLKNCQKELISTQILQFEAQNMDVSMNDVIGFFNEREADLKSQYEDKKKFVKEMRDTPEFQSWMREIRSYDQDTKEKLNKVAEKYEEEGNFNLSFVQDVLDKLESEIAMVNHDESAVTILDQVTAELRELEHTVPQQSKDLETIKAKLKEDHAVLEPKLDDIVSKISARFARLFNNVGSAGAVRLEKPKDYAEWKIEIMVKFRDNAPLKKLDSHTQSGGERAVSTVLYMIALQEFTSAPFRVVDEINQGMDSRNERIVHKAMVENACAENTSQYFLITPKLLTGLHYHEKMRIHCVMAGSWIPNPSEDPKMIHFGETSNYSFD
B6: Nse1 (protein, UniProt Q07913 1-336)
chain: MEVHEEQVSAPVTGDATAKYLLQYILSARGICHENALILALMRLETDASTLNTEWSIQQWVDKLNDYINAINVKLNLLGYKIIRINHGIGRNAVTLKAKQNFESFEDNTAIRAHNNDYAVLQSIVLPESNRFFVYVNLASTEETKLATRFNQNEIEFMKWAIEQFMISGETIVEGPALETSIIVKEVNRILVAATGDSNLAKWRKFSTFTVGSTNLFQFQELTATDIEDLLLRLCELKWFYRTQEGKFGIDLRCIAELEEYLTSMYNLNTCQNCHKLAIQGVRCGNESCREENEETGENSLSQIWHVDCFKHYITHVSKNCDRCGSSLITEGVYVI

Results are given in words; binding and its absence hold for the method and conditions named. Some results given as binding are weak or reduced against the parent protein; the word gives no strength.

This assay has as its target T1, Smc6-TAP (S. cerevisiae). As to the kind of experiment: tandem affinity purification + SEC; subunits co-overexpressed in S. cerevisiae; complex purified through Smc6-TAP (IgG Sepharose, TEV protease, calmodulin Sepharose, 500 mM NaCl buffers), then Superose 6 Increase 10/300 GL in STO500 buffer and SDS-PAGE of the fractions (octamer and hexamer).
On to B1, for which the binding entry is “binds”.

Take B2: the binding result is listed as “binds”.

In the case of B3, the binding result is given as “binds”.

On to B4, for which the binding entry was “binds”.

In the case of B5, the binding result is given as “binds”.

In the case of B6, the binding entry is “binds”.
